Data taken from PubChem BioAssay AID504327 (National Center for Advancing Translational Sciences (NCATS), 2011).
Out of some 390,000 compounds screened, about 820 (0.21%) were called active. The shares of active, inactive and inconclusive entries below differ from those in the screen. Calls follow the shape of the dose curve; as a rule, active = well fitted inhibition curve with a large enough effect; inconclusive = small, poorly fitted or top-dose-only effect, or another doubt; inactive = no such curve, though single readings can be large or run the other way. Potencies beside an inconclusive call are fits to weak or partial responses and may not hold up.

Amino acid sequences for entries named in this document (tags omitted).
UniProt Q92830, whole entry, looked up: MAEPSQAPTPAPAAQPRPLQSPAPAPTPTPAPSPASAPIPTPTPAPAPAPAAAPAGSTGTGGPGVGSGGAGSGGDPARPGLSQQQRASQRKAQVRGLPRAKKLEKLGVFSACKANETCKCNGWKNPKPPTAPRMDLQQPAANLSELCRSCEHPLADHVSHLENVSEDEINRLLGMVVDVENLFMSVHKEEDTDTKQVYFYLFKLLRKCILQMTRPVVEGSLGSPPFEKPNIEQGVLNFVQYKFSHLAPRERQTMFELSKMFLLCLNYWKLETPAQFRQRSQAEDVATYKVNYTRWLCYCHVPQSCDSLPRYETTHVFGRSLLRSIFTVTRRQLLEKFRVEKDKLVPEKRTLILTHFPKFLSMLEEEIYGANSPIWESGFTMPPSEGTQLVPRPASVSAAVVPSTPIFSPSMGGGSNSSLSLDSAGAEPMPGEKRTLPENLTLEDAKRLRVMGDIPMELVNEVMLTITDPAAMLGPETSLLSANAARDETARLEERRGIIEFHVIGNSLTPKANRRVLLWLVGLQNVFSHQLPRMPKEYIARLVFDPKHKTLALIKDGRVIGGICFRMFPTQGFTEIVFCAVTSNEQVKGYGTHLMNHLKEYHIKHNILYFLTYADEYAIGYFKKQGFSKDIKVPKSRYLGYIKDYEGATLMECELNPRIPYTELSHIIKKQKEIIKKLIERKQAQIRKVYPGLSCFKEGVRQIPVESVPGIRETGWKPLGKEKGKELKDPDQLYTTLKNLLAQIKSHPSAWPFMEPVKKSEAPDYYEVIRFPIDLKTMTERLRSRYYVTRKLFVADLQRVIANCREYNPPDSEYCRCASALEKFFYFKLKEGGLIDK

biological target: Histone acetyltransferase KAT2A (Homo sapiens) (UniProt Q92830); assay: qHTS Assay for Inhibitors of GCN5L2; conditions: GCN5L2 HAT assay, ThioGlo1 CoA-SH fluorescence; activity change, negative = inhibition: at 58.9 µM (top of the series) unless noted
Summary of the method: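 Enzyme at 20nM final was mixed with library compounds for 15 min at room temperature. Peptide H3(1-25) at 75uM, acetyl-CoA at 70uM and ThioGlo1 at 50uM were then added. Plates were read immediately and after 20 min (Ex340nm/Em540nm).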
% is scaled to controls: 0 for no effect and ±100 for the full control effect; potency is read from the fitted curve at half-maximal effect.

SMILES | Potency | activity change, negative = inhibition
CC(NC(=O)c1ccc(C(C)(C)C)cc1)C(=O)O (stereo not drawn) | inconclusive: 39.8 µM [inhibitor, partial curve] | 
O=C(N/N=C\c1cn(-c2ccccc2)nc1-c1ccccc1)c1ccc(Br)o1 | inconclusive: 15.8 µM [inhibitor, single point] | 
N#Cc1ccc(CN2C(=O)c3ccccc3Sc3ccc(C(=O)OCc4ccco4)cc32)cc1 |  | inactive: -0.923%
CCOC(=O)COc1ccc2c(C#N)c3ccccn3c2c1 | inconclusive: 35.5 µM [inhibitor, single point] | 
CN(CCC1CCCCO1)C(=O)CCc1nnc(C2CCCCC2)o1 (stereo not drawn) | inconclusive: 39.8 µM [inhibitor, single point] | 
COc1ccc(C(=O)NCC(=O)OCCCOC(=O)CNC(=O)c2ccc(OC)c(OC)c2)cc1OC | inconclusive: 7.94 µM [inhibitor, full curve, poor fit] | 
COc1ccc(NC(=O)CN(C)C(=O)c2ccc(NS(=O)(=O)c3ccc(C)c([N+](=O)[O-])c3)cc2)cc1 | inconclusive: 7.08 µM [inhibitor, single point] | 
CN(C)c1ccc(CNC(=O)c2cc3cc(S(=O)(=O)N4CCCCC4)ccc3n2C)cc1 |  | inactive: -9.34%
Cn1nc(C(=O)Nc2cccc(S(=O)(=O)N3CCCCC3)c2)c2ccccc2c1=O | inconclusive: 8.91 µM [inhibitor, partial curve] | 
CCOC(=O)OC(C)OC1=C(C(=O)Nc2ccccn2)N(C)S(=O)(=O)c2ccccc21 (stereo not drawn) | inconclusive: 35.5 µM [inhibitor, single point] | 
CCN(C(=O)COC(=O)c1cc(-c2ccc3cc(OC)ccc3c2)nc2ccccc12)C1CCS(=O)(=O)C1 (stereo not drawn) | inconclusive: 39.8 µM [inhibitor, single point] | 
CCOC(=O)c1cc(C)sc1NC(=O)CSC1=NCCS1 | inconclusive: 3.55 µM [inhibitor, full curve, poor fit] | 
O=C(N/N=C/c1cccc(O)c1)N/N=C/c1cccc(O)c1 | inconclusive: 39.8 µM [inhibitor, single point] | 
COc1ccc(N2CCN(C(=O)c3ccc4c(c3)NC(=O)C(CSCc3ccc(C)cc3)N4)CC2)cc1 (stereo not drawn) | inconclusive: 39.8 µM [inhibitor, single point] | 
COc1ccc(NC(=O)c2nnn(Cc3nc(-c4cc(Br)ccc4OC)oc3C)c2C)cc1 |  | inactive: -0.277%
COc1cccc(-c2cc(N)nn2C(=O)Nc2ccc(Cl)cc2)c1 | inconclusive: 0.891 µM [inhibitor, full curve, poor fit] | 
COCCn1c(=O)c(-c2cccs2)nc2cnc(N3CCN(C)CC3)nc21 | inconclusive: 28.2 µM [inhibitor, partial curve] | 
COc1ccccc1N1CCN(c2csc3ccc(Cl)cc3c2=O)CC1 |  | inactive: -22.7%
O=C(N/N=C/c1cc2c(cc1Br)OCO2)c1cccnc1 |  | inactive: -7.3%
Cc1cc(C)c2c(c1)C(=O)/C(=C/c1ccc(C(=O)O)cc1)CC2 |  | inactive: -2.65%
CCn1cc(C(=O)O)c(=O)c2cnc(N3CCCC3)nc21 | inconclusive: 17.8 µM [inhibitor, single point] | 
CC(NS(=O)(=O)c1ccc(NC(=O)N2CCCCC2)cc1)c1ccccc1 (stereo not drawn) | inconclusive: 3.98 µM [inhibitor, single point] | 
O=C(O)c1ccccc1NS(=O)(=O)c1ccc(NN=Cc2ccccc2F)c([N+](=O)[O-])c1 | inconclusive: 31.6 µM [inhibitor, single point] | 

SMILES | Potency | activity change, negative = inhibition
Cc1cccn2c(CN3CCSCC3)c(C(=O)N3CCOCC3)nc12 | inconclusive: 0.891 µM [inhibitor, single point] | 
COc1ccccc1NC(=S)NCCc1c[nH]c2ccccc12 |  | inactive: 3.91%
COC(=O)C1CC(=O)N(c2ccc(OCc3ccccc3Cl)cc2)C1 (stereo not drawn) |  | inactive: -23.8%
CCc1ccc(C2c3[nH]c4ccccc4c3CCN2C(=O)c2cc[n+]([O-])cc2)cc1 (stereo not drawn) |  | inactive: -5.8%
COc1ccc2cc3cc(C(=O)N4CCN(c5ccccc5)CC4)oc3nc2c1 |  | inconclusive: -48.6% [inhibitor] [at 0.501 µM]
COCCCNC(=O)/C(C#N)=C/c1ccc(OCC(=O)O)c(OC)c1 | inconclusive: 22.4 µM [inhibitor, single point] | 
CCCn1c(C)cc(C(=O)Cn2nnc3ccccc3c2=O)c1C |  | inactive: -1.09%
CCCCC(=O)N1CCN(c2nc3ccc(Cl)cc3s2)CC1 | inconclusive: 0.0891 µM [inhibitor, full curve, poor fit] | 
O=C(c1ccccc1)N(Cc1ccco1)C1CCS(=O)(=O)C1 (stereo not drawn) | inconclusive: 0.891 µM [inhibitor, full curve, poor fit] | 
Cc1cc(Cl)c2oc(C(=O)N(C)Cc3ccon3)c(C)c2c1 |  | inactive: -5.67%
O=C(CN1CCOCC1)Nc1cccc(C(=O)Nc2cccc(C(F)(F)F)c2)c1 | inconclusive: 39.8 µM [inhibitor, single point] | 
Cc1ccc(NC(=O)N2CCCCCC2)cc1 | inconclusive: 0.1 µM [inhibitor, full curve, poor fit] | 
CC(C)(C#CC(O)(c1ccccc1)c1ccccc1)N1CCCCC1 | inconclusive: 7.08 µM [inhibitor, single point] | 
O=C(NOC(=O)c1ccccc1F)c1ccc(OC(F)F)cc1 |  | inactive: -4.6%
Cn1c(=O)c(C(=O)NCc2ccccc2Cl)c(O)c2ccccc21 | inconclusive: 39.8 µM [inhibitor, single point] | 
O=C1COc2ccc(N3C(=O)C=CC3=O)cc2N1 | inconclusive: 39.8 µM [inhibitor, single point] | 
Nc1ccc(-c2nc3c(Cl)c(N)ccc3[nH]2)cc1 | inconclusive: 7.08 µM [inhibitor, full curve, poor fit] | 
CC(C)Cc1nn2c(=O)cc(COC(=O)c3ccc(NC(=O)CCc4ccccc4)cc3)nc2s1 |  | inactive: -3.62%
O=S(=O)(c1ccc2nc(-c3ccco3)c(-c3ccco3)nc2c1)N1CCOCC1 | inconclusive: 20 µM [inhibitor, partial curve] | 
COc1ccc(C(=O)NCCc2cn3ccccc3n2)cc1 |  | inactive: 2.2%
CC(=O)OC(COc1cccc(C)c1)Cn1cnc2ccccc21 (stereo not drawn) | inconclusive: 39.8 µM [inhibitor, single point] | 
CCOC(=O)c1sc(-c2ccccc2)cc1NC(=O)Nc1ccccc1 | inconclusive: 39.8 µM [inhibitor, partial curve, poor fit] | 
COc1cc(/C=c2\sc3n(c2=O)CCCN=3)ccc1O | inconclusive: 3.98 µM [inhibitor, single point] | 

Of the compounds above, 3 contain bromine.
SMILES | Potency | activity change, negative = inhibition
O=C(N/N=C\c1cn(-c2ccccc2)nc1-c1ccccc1)c1ccc(Br)o1 | inconclusive: 15.8 µM [inhibitor, single point] | 
COc1ccc(NC(=O)c2nnn(Cc3nc(-c4cc(Br)ccc4OC)oc3C)c2C)cc1 |  | inactive: -0.277%
O=C(N/N=C/c1cc2c(cc1Br)OCO2)c1cccnc1 |  | inactive: -7.3%

Part of the list above in order of count of non-hydrogen atoms, largest number first.
SMILES | Potency | activity change, negative = inhibition
CCOC(=O)c1sc(-c2ccccc2)cc1NC(=O)Nc1ccccc1 | inconclusive: 39.8 µM [inhibitor, partial curve, poor fit] | 
COCCCNC(=O)/C(C#N)=C/c1ccc(OCC(=O)O)c(OC)c1 | inconclusive: 22.4 µM [inhibitor, single point] | 
Cc1cc(Cl)c2oc(C(=O)N(C)Cc3ccon3)c(C)c2c1 |  | inactive: -5.67%

Next part.

SMILES | Potency | activity change, negative = inhibition
CC(C)c1ccc(NC(=O)C[n+]2ccn(C3=C([O-])c4ccccc4C3=O)c2)cc1 |  | inactive: -2.73%
COc1ccc(COC(=O)C2=C(C)NC(=O)NC2c2cccc(Br)c2)cc1 (stereo not drawn) | inconclusive: 12.6 µM [inhibitor, partial curve, poor fit] | 
C=CC[C@]12CCc3ccccc3C1N(c1ccc(C(=O)OCC)cc1)C2=O (stereo partly drawn) | inconclusive: 39.8 µM [inhibitor, single point] | 
Cc1ccc(C(=O)OCC(=O)NCc2ccco2)s1 | inconclusive: 39.8 µM [inhibitor, single point] | 
Cc1noc(C)c1-c1nc(NCc2ccccc2)c2ccccc2n1 | active: 25.1 µM | 
Cc1cc(CSCc2ccc(Cl)cc2)no1 | inconclusive: 0.562 µM [inhibitor, single point] | 
Cc1nnsc1-c1nnc(SCC(=O)c2ccccc2)n1C1CC1 | inconclusive: 0.158 µM [inhibitor, partial curve, poor fit] | 
O=C(NC1CCCCC1)c1cc([N+](=O)[O-])ccc1N1CCCCC1 | inconclusive: 25.1 µM [inhibitor, single point] | 
FC(F)(F)c1ccccc1-c1nc(Nc2ccncc2)c2ccccc2n1 |  | inactive: -24.1%
Cc1ccc(NC(=O)CN2C(=O)N/C(=C/c3cccn3-c3ccc(C(=O)O)cc3)C2=O)cc1 | inconclusive: 28.2 µM [inhibitor, single point] | 
CCCC(=O)Nc1ccc(C(=O)n2ccc(C)n2)cc1 | inconclusive: 0.1 µM [inhibitor, partial curve, poor fit] | 
Cc1oc2c(c(C)cc3oc(=O)c(CC(=O)NCC(=O)NCC(=O)O)c(C)c32)c1C | inconclusive: 39.8 µM [inhibitor, single point] | 
CC(=O)Nc1cccc(C(=O)OCCCOc2ccc(F)cc2)c1 | inconclusive: 39.8 µM [inhibitor, single point] | 
C#CCOc1ccc(/C=C2/C(=O)N(c3cccc(C(=O)O)c3)N=C2C)cc1OC |  | inactive: -10.3%
Cc1ccc(O)c(CNc2cccc(C)n2)c1 | inconclusive: 39.8 µM [inhibitor, single point] | 
Fc1ccc(Nc2ncnc3ccc(-c4ccoc4)cc23)cc1 | inconclusive: 28.2 µM [inhibitor, single point] | 
Cc1[nH]n(-c2ccccc2)c(=O)c1C=Nc1ccc2[nH]c(=O)[nH]c2c1 |  | inactive: -9.69%
Cc1nn(CC(=O)N(C)Cc2ccccc2)c(=O)c2cccn12 |  | inactive: -1.15%
Cc1cccc(Oc2cc(N)cc([N+](=O)[O-])c2)c1 | inconclusive: 0.708 µM [inhibitor, single point] | 
CC1C(=O)Nc2ccc(S(=O)(=O)N3CCN(c4cccc(Cl)c4)CC3)cc2NC1=O (stereo not drawn) |  | inactive: -17%
O=C(NCC1CCCN(C(=O)NCc2ccccc2)C1)c1ccc2c(c1)OCO2 (stereo not drawn) | inconclusive: 28.2 µM [inhibitor, single point] | 
O=S(=O)(c1ccc(Cl)cc1)c1cnc(-c2cccnc2)nc1-c1ccccc1 | inconclusive: 6.31 µM [inhibitor, partial curve] | 
